Measurements reported in PubChem BioAssay AID743121 (NCATS, 2013).

Test: 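Genes whose silencing strengthens cell killing by camptothecin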 (primary screen)
Cells: MDA-MB-231 cells, a human breast cancer line
Knock-down reagent: single siRNA against human genes, 20 nM siRNA (0.8 pmol per well)
Time to read-out: 120 h (drug added 48 h after transfection, read 72 h later)
Treatment: camptothecin 20 nM (about EC30) for 72 h; vehicle 0.1% DMSO in parallel plates
Measurement: 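CellTiter-Glo ATP signal, scaled to control siRNA as percent viability; sensitisation given as log2 of untreated divided by camptothecin-treated viability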
Scale: log2 vehicle/camptothecin viability: higher = stronger sensitisation to camptothecin; viability with camptothecin and viability without drug: higher = more viable cells
Hit rule: 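Active genes have an RSA gene-level p-value below 0.001, computed from the ratios of their separate siRNAs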
This is one part, drawn at random, of about 26,000 reagents. 167 of them (0.63%) count as active. 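Calls are per gene from RSA p-values that are not deposited; an individual active-marked siRNA can sensitise only weakly.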 A number with no mark means an inactive call. Reagents against one gene are numbered here. No sequences are given here.

no.	Target gene	reagent no.	log2 vehicle/camptothecin viability	viability with camptothecin (% of control)	viability without drug (% of control)
1	CCNE2	1	-0.104	105	97.7
2	CCNE2	2	-0.207	55.1	47.8
3	CCNE2	3	-0.402	68.8	52
4	TRPC4AP	1	0.25	58.8	69.9
5	TRPC4AP	2	-0.101	98.1	91.5
6	TRPC4AP	3	-0.148	70.9	64
7	TRPC4AP	4	-0.104	84.5	78.6
8	GRM5P1	1	-0.13	103	93.9
9	GRM5P1	2	0.222	90.5	106
10	GRM5P1	3	-0.176	127	112
11	GRM5P1	4	0.409	55.8	74
12	DPP4	1	-0.218	95.6	82.2
13	DPP4	2	-0.258	35.1	29.3
14	DPP4	3	-0.25	156	131
15	DPP4	4	0.118	61.7	66.9
16	XPC	1	-0.201	70.6	61.4
17	XPC	2	0.0281	81.9	83.6
18	XPC	3	-0.0236	124	122
19	FBXO44	1	0.0275	17	17.3
20	FBXO44	2	-0.182	48.9	43.1
21	FBXO44	3	0.371	67.5	87.3
22	PKD2	1	-0.258	90.4	75.6
23	PKD2	2	-0.137	91.3	83
24	PKD2	3	-0.178	107	94.5
25	PKD2	4	-0.00463	92.2	91.9
26	ADCY8	1	0.102	75.9	81.5
27	ADCY8	2	0.733	46.5	77.3
28	ACSM3	1	0.0459	106	110
29	ACSM3	2	0.00148	81.2	81.3
30	ACSM3	3	-0.431	91.5	67.9
31	MDGA2	1	-0.283	75.9	62.4
32	MDGA2	2	-0.0975	120	112
33	MDGA2	3	-0.19	67.1	58.9
34	TAC1	1	-0.39	87.8	67
35	TAC1	2	-0.13	58.6	53.6
36	TAC1	3	-0.208	92.8	80.3
37	TAC1	4	-0.215	66.1	56.9
38	CDKL4	1	-0.675	20.9	13.1
39	CDKL4	2	-0.167	113	101
40	CDKL4	3	-0.197	103	89.6
41	CDKL4	4	0.0024	117	117
42	UBD	1	-0.154	110	99.2
43	UBD	2	-0.141	94.9	86
44	UBD	3	-0.00735	85	84.6
45	UBD	4	-0.36	93	72.5
46	CAMK4	1	-0.312	98.1	79
47	CAMK4	2	-0.375	96.3	74.3
48	CAMK4	3	-0.262	60.3	50.3
49	CAMK4	4	-0.0258	110	108
50	OR52A1	1	-0.0928	92.8	87
51	OR52A1	2	-0.0137	114	113
52	OR52A1	3	0.276	48.7	59
53	OR52A1	4	-0.358	52.6	41.1
54	ZNF280B	1	-0.219	62.8	53.9
55	ZNF280B	2	-0.405	84.1	63.5
56	ZNF280B	3	-0.259	110	92.2
57	ZNF280B	4	-0.022	79.7	78.5
58	TRIM21	1	-0.0164	59.1	58.5
59	TRIM21	2	0.195	5.43	6.22
60	TRIM21	3	-0.27	61.7	51.2
61	TRIM21	4	0.311	30	37.2
62	SACK1D	1	-0.291	79.7	65.1
63	SACK1D	2	-0.0853	103	97
64	SACK1D	3	1.53	15	43.2
65	SACK1D	4	0.111	70.8	76.5
66	RAPGEF1	1	-0.507	54.7	38.5
67	RAPGEF1	2	-0.681	80.5	50.2
68	RAPGEF1	3	-0.389	75.5	57.6
69	RAPGEF1	4	-0.121	109	100
70	EEF1A1	1	-0.176	92.8	82.1
71	EEF1A1	2	-0.156	85.6	76.8
72	EEF1A1	3	-0.264	34.8	29
73	EEF1A1	4	-0.27	94.7	78.5
74	CCNG1	1	-0.109	100	93.1
75	CCNG1	2	0.3	78	96
76	CCNG1	3	-0.19	86.6	75.9
77	CCNG1	4	-0.124	81.1	74.4
78	KCNMB3	1	0.017	103	105
79	KCNMB3	2	-0.387	126	96.6
80	KCNMB3	3	0.0804	103	108
81	KCNMB3	4	-0.388	60.2	46
82	CYP4V2	1	0.12	75.5	82
83	CYP4V2	2	-0.0718	85	80.9
84	CYP4V2	3	0.045	109	113
85	CYP4V2	4	-0.229	82.4	70.3
86	SLC9A2	1	-0.132	103	94.1
87	SLC9A2	2	-0.085	95.5	90
88	SLC9A2	3	-0.199	101	88.3
89	SLC9A2	4	-0.0229	93.3	91.8

14 entries from above, reformatted:
Target gene,reagent no.,log2 vehicle/camptothecin viability,viability with camptothecin (% of control),viability without drug (% of control)
ACSM3,1,0.0459,106,110
ACSM3,2,0.00148,81.2,81.3
ACSM3,3,-0.431,91.5,67.9
MDGA2,1,-0.283,75.9,62.4
MDGA2,2,-0.0975,120,112
MDGA2,3,-0.19,67.1,58.9
TAC1,1,-0.39,87.8,67
TAC1,2,-0.13,58.6,53.6
TAC1,3,-0.208,92.8,80.3
TAC1,4,-0.215,66.1,56.9
CDKL4,1,-0.675,20.9,13.1
CDKL4,2,-0.167,113,101
CDKL4,3,-0.197,103,89.6
CDKL4,4,0.0024,117,117
